# Experimental data as given in patent publication US20130023541A1, “VOLTAGE-GATED SODIUM CHANNEL BLOCKERS” (Glaxo Group Limited, priority 2010, published 2013).
# Sequences of proteins named here, by UniProt entry; tags and fusion partners are left off.
# UniProt Q9NY46, whole entry: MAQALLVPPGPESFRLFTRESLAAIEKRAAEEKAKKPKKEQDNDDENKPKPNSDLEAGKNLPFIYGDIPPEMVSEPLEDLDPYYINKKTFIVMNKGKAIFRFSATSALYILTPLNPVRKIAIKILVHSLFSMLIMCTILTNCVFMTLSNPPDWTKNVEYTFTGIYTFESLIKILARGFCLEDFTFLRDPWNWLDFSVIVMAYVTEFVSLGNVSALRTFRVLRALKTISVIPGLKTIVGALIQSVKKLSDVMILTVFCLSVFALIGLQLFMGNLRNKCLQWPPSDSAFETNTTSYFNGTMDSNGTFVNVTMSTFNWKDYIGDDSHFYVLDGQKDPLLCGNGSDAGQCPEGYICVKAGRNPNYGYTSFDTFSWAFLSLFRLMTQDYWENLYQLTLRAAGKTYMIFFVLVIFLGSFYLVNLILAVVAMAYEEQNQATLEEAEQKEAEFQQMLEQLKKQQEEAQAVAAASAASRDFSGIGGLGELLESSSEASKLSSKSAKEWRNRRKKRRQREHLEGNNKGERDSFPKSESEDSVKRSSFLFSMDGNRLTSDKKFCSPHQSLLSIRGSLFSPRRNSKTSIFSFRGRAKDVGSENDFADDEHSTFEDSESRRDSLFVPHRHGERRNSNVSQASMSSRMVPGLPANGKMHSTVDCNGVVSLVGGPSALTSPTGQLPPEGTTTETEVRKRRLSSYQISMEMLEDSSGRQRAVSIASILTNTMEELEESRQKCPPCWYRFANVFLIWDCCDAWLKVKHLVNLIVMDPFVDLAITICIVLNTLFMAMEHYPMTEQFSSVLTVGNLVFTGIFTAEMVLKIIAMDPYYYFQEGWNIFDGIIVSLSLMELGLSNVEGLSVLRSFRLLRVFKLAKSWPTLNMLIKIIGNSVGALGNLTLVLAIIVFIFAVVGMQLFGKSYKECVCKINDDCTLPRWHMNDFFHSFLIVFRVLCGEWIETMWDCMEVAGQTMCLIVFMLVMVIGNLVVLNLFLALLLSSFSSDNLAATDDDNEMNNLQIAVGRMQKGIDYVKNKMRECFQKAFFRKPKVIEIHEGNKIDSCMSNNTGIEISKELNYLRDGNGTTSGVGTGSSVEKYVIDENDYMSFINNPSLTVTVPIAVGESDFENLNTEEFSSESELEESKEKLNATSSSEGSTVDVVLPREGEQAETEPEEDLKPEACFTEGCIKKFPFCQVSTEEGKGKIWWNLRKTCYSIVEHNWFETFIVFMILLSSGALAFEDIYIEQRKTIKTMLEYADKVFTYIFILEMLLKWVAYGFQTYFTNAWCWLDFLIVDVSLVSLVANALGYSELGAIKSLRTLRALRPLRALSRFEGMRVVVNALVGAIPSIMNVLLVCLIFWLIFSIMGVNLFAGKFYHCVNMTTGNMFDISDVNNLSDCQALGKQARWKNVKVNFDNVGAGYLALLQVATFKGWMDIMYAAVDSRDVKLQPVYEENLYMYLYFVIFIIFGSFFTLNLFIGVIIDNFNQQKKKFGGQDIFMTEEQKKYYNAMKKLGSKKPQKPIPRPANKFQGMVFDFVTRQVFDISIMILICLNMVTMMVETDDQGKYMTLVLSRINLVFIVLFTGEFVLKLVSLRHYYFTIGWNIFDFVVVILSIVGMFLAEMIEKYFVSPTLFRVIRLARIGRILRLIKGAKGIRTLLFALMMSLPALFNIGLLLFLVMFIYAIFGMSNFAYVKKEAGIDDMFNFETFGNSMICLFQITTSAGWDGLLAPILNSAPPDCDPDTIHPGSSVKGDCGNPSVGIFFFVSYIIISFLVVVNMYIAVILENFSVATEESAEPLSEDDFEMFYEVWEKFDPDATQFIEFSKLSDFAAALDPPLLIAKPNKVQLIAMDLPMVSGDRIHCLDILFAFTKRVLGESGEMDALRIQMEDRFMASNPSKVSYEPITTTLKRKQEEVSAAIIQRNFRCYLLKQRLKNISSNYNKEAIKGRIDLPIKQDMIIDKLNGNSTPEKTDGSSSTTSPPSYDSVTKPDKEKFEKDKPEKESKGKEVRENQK
# UniProt Q15858, whole entry: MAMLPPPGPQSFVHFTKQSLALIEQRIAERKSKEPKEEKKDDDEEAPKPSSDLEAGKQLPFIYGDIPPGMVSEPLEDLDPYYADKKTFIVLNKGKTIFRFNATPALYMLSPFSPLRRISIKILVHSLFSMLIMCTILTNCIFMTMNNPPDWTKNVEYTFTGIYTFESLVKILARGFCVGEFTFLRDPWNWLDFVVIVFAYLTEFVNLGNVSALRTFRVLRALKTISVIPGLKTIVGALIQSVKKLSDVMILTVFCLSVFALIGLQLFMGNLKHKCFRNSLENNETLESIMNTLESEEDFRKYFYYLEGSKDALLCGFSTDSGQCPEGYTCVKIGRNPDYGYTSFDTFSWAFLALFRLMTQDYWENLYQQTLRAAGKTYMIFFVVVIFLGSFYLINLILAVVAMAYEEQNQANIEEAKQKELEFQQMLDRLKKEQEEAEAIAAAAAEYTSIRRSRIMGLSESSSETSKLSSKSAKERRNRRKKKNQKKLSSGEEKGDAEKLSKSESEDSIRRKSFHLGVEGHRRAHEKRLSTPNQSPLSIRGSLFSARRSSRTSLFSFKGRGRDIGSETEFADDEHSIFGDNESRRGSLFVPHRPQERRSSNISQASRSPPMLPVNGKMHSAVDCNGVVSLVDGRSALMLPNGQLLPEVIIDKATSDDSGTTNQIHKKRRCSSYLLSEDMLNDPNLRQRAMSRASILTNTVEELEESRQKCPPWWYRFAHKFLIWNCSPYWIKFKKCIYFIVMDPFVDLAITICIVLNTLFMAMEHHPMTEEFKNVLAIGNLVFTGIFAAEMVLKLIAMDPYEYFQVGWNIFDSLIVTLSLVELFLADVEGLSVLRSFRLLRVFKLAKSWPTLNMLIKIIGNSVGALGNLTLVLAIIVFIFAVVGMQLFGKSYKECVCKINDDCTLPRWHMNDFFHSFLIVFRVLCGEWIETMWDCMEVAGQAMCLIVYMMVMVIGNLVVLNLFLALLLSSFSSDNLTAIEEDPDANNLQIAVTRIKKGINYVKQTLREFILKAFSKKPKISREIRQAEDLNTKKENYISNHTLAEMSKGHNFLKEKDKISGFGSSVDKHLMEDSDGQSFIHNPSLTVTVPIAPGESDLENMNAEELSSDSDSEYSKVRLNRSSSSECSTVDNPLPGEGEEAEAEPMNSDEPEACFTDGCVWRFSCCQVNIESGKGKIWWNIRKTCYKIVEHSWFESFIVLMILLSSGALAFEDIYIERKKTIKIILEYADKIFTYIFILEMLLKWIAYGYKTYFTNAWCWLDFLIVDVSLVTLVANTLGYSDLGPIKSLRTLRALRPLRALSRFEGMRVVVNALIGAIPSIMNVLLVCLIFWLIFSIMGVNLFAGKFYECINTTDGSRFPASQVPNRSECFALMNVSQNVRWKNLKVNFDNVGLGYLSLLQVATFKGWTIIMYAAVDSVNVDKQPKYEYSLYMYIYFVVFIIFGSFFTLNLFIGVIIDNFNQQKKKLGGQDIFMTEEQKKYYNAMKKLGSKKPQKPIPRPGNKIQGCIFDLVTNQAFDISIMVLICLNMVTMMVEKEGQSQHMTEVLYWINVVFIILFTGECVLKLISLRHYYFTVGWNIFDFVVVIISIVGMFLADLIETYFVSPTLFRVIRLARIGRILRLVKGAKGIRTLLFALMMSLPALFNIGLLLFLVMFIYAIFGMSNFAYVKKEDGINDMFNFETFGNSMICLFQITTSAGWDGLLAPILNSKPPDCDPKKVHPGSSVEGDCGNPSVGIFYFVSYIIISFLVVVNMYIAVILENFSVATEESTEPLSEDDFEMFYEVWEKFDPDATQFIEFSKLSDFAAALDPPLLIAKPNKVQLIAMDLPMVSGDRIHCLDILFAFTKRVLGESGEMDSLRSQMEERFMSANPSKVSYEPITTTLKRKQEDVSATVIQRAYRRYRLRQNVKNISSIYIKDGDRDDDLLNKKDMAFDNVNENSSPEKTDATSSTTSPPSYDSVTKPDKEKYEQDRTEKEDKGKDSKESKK
# Some of these results come from one statement about several compounds together. For at least one compound, name, drawing or mass did not settle the structure.
# Columns and labels:
# [1] = target: T1, hNaV1.3 channels (Homo sapiens, UniProt Q9NY46); assay: Use-dependent block of hNaV1.3 currents, IonWorks Quattro planar array electrophysiology; assay type: cell-based; conditions: concentration producing 15% use-dependent inhibition, 10th versus 1st depolarizing pulse, 10 Hz, CHO cells
# T1 construct: expressed in transfected cells
# [2] = target: NaV 1.7 (Homo sapiens, UniProt Q15858); assay: Use-dependent block of NaV1.7 currents, IonWorks Quattro planar array electrophysiology; assay type: cell-based; conditions: concentration producing 15% use-dependent inhibition, 10th versus 1st depolarizing pulse, 10 Hz
SMILES,use-dependent pUD15 against NaV1.3 [1],use-dependent pUD15 against NaV1.7 [2]
COc1cc(Cl)ccc1COc1ccc(CN2CCN(c3ncccc3C(=O)OC(C)C)CC2)cc1 [Example 454],4-4.99,inactive
"CCN(Cc1ccc(C[N+](CC)(CC)[C@@H]2CCN(c3ncccc3C(=O)OC(C)C)C2)cc1)[C@@H]1CCN(c2ncccc2C(=O)OC(C)C)C1 [Example 539, (3R)—N,N-diethyl-N-{[4-({ethyl[(3R)-1-(3-{[(1-methylethyl)oxy]carbonyl}-2-pyridinyl)-3-pyrrolidinyl]amino}methyl)phenyl]methyl}-1-(3-{[(1-methylethyl)oxy]carbonyl}-2-pyridinyl)-3-pyrrolidinaminium]",4-4.99,4-4.99
"CCN(Cc1ccc(-c2ccccc2Cl)cc1)[C@@H]1CCN(c2ncccc2C(=O)OC(C)C)C1 [Example 66, 1-methylethyl 2-{(3R)-3-[[(2′-chloro-4-biphenylyl)methyl](ethyl)amino]-1-pyrrolidinyl}-3-pyridinecarboxylate]",4-4.99,inactive
CC(C)OC(=O)c1cccnc1N1CCN(Cc2ccc(OCc3ccc(C(C)(C)C)cc3)cc2)CC1 [Example 424],inactive,inactive
"CCN(Cc1ccc(CN(CC)[C@@H]2CCN(c3ncccc3C(=O)OC(C)C)C2)cc1)[C@@H]1CCN(C(=O)C(C)C)C1 [Example 42, 1-Methylethyl 2-[(3R)-3-(ethyl{[4-({ethyl[(3R)-1-(2-methylpropanoyl)-3-pyrrolidinyl]amino}methyl)phenyl]methyl}amino)-1-pyrrolidinyl]-3-pyridinecarboxylate]",5-5.99,5-5.99
"CC(C)OC(=O)c1c(-c2ccccc2)ccnc1N1CCN(Cc2ccccc2OCc2ccccc2)CC1 [Example 140, 1-methylethyl 4-phenyl-2-[4-({2-[(phenylmethyl)oxy]phenyl}methyl)-1-piperazinyl]-3-pyridinecarboxylate]",inactive,inactive
CC(C)OC(=O)c1cccnc1N1CCN(Cc2ccc(OCc3ccc(C(C)C)cc3)cc2)CC1 [Example 457],4-4.99,4-4.99
"CCN(Cc1ccc(OC)c(OCc2ccccc2)c1)[C@@H]1CCN(c2nccc(-c3ccccc3)c2C(=O)OC(C)C)C1 [Example 162, 1-methylethyl 2-{(3R)-3-[ethyl({4-(methyloxy)-3-[(phenylmethyl)oxy]phenyl}methyl)amino]-1-pyrrolidinyl}-4-phenyl-3-pyridinecarboxylate]",4-4.99,inactive
CC(C)OC(=O)c1cccnc1N1CCN(Cc2ccc(OCc3cccc4ccccc34)cc2)CC1 [Example 448],inactive,inactive
"CCc1ccccc1Nc1ccnc(N2CCN(Cc3ccccc3)CC2)c1C(=O)OC(C)C [Example 106, 1-methylethyl 4-[(2-ethylphenyl)amino]-2-[4-(phenylmethyl)-1-piperazinyl]-3-pyridinecarboxylate]",4-4.99,inactive
CC(C)OC(=O)c1cccnc1N1CCN(Cc2cccc(Oc3ccc(Cl)cc3)c2)CC1 [Example 343],inactive,4-4.99
"CCN(Cc1ccc(OCc2ccccc2)cc1)[C@@H]1CCN(c2nccc(C)c2C(=O)OC(C)C)C1 [Example 300, 1-methylethyl 2-{(3R)-3-[ethyl({4-[(phenylmethyl)oxy]phenyl}methyl)amino]-1-pyrrolidinyl}-4-methyl-3-pyridinecarboxylate]",4-4.99,inactive
